System: ConA cells
Experiment: Drug sensitivity (growth inhibition) assay, ConA cells
Assay type: cell-based, mouse
Settings: Compound 102 (10 μM), fold resistance
Description: Drug sensitivity assays. To estimate drug-mediated growth inhibition, 10^3 cells were plated per well of 96-well plates, and incubated with a range of concentrations of drugs added 24 hours after plating. […] After elution by 1% SDS solution, optical density was determined on a Multiscan Ascent reader (Lybsystems, Helsinki, Finland) at 650 nm.

CN[C@H]1CCc2cc(OC)c(OC)c(OC)c2-c2ccc(OC)c(=O)cc21 [Colcemide, colcemid]
Change in sensitivity (x-fold): 1 x-fold

— US6861431B2, “Compounds capable of modulating the activity of multidrug transporters and therapeutic use of the same” (The Board of Trustees of the University of Illinois, priority 2001, dated 2005)
